Numbering of substitutions follows the chain as printed. The list shows a part of the results. For part of these data: At the low end of the ranking the order means little.
Key:
Conditions in all cases: yeast three-hybrid, YBZ-1, SC-Leu-His + 0.5 mM 3-AT, 4 days
[1] = target: T1, PUM1 PUF domain R1-QFR R2-VFQ R7-NPG S863Q + R864F + Q867R + N899V + Y900F + S1079N + N1080P + E1083G (UniProt Q14671)
T1 sequence: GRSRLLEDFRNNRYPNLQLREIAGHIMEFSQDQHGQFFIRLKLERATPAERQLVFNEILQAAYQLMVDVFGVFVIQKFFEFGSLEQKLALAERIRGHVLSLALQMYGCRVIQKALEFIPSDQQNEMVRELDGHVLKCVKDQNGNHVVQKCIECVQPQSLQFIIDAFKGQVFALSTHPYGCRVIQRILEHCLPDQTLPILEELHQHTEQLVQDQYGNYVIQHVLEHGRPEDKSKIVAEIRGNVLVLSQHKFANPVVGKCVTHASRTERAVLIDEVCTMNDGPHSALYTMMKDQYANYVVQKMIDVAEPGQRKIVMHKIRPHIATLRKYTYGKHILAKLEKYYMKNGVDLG

[2] = target: T2, PUM1 PUF domain R2-VFQ R3-THE R4-TFR N899V + Y900F + C935T + R936H + Q939E + N971T + H972F + Q975R (UniProt Q14671)
T2 sequence: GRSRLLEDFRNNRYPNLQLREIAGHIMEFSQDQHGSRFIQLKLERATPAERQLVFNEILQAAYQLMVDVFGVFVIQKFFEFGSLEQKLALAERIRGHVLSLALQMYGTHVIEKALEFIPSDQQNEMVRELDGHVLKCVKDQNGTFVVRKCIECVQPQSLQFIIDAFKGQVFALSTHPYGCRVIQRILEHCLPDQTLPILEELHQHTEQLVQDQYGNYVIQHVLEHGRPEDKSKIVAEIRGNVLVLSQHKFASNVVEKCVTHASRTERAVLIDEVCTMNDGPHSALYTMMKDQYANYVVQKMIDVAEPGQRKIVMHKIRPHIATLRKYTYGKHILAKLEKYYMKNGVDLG

[3] = target: T3, PUM1 PUF domain R3-AAE C935A + R936A + Q939E (UniProt Q14671)
T3 sequence: T2 sequence with V72N, F73Y, T108A, H109A, T144N, F145H, R148Q

[4] = target: T4, PUM1 PUF domain R3-ACF C935A + R936C + Q939F (Homo sapiens) (UniProt Q14671)
T4 sequence: T2 sequence with V72N, F73Y, T108A, H109C, E112F, T144N, F145H, R148Q

[5] = target: T5, PUM1 PUF domain R3-AIR C935A + R936I + Q939R (Homo sapiens) (UniProt Q14671)
T5 sequence: T2 sequence with V72N, F73Y, T108A, H109I, E112R, T144N, F145H, R148Q

[6] = target: T6, PUM1 PUF domain R3-AKE C935A + R936K + Q939E (Homo sapiens) (UniProt Q14671)
T6 sequence: T2 sequence with V72N, F73Y, T108A, H109K, T144N, F145H, R148Q

[7] = target: T7, PUM1 PUF domain R3-APA C935A + R936P + Q939A (Homo sapiens) (UniProt Q14671)
T7 sequence: T2 sequence with V72N, F73Y, T108A, H109P, E112A, T144N, F145H, R148Q

[8] = target: T8, PUM1 PUF domain R3-APF C935A + R936P + Q939F (UniProt Q14671)
T8 sequence: T2 sequence with V72N, F73Y, T108A, H109P, E112F, T144N, F145H, R148Q

[9] = target: T9, PUM1 PUF domain R3-APL C935A + R936P + Q939L (Homo sapiens) (UniProt Q14671)
T9 sequence: T2 sequence with V72N, F73Y, T108A, H109P, E112L, T144N, F145H, R148Q

[10] = target: T10, PUM1 PUF domain R3-APS C935A + R936P + Q939S (Homo sapiens) (UniProt Q14671)
T10 sequence: T2 sequence with V72N, F73Y, T108A, H109P, E112S, T144N, F145H, R148Q

[11] = target: T11, PUM1 PUF domain R3-ARD C935A + Q939D (Homo sapiens) (UniProt Q14671)
T11 sequence: T2 sequence with V72N, F73Y, T108A, H109R, E112D, T144N, F145H, R148Q

[12] = target: T12, PUM1 PUF domain R3-ASE C935A + R936S + Q939E (UniProt Q14671)
T12 sequence: T2 sequence with V72N, F73Y, T108A, H109S, T144N, F145H, R148Q

[13] = target: T13, PUM1 PUF domain R3-ASY C935A + R936S + Q939Y (UniProt Q14671)
T13 sequence: T2 sequence with V72N, F73Y, T108A, H109S, E112Y, T144N, F145H, R148Q

[14] = target: T14, PUM1 PUF domain R3-ATE C935A + R936T + Q939E (UniProt Q14671)
T14 sequence: T2 sequence with V72N, F73Y, T108A, H109T, T144N, F145H, R148Q

[15] = target: T15, PUM1 PUF domain R3-CNE R936N + Q939E (UniProt Q14671)
T15 sequence: T2 sequence with V72N, F73Y, T108C, H109N, T144N, F145H, R148Q

[16] = target: T16, PUM1 PUF domain R3-CNT R936N + Q939T (Homo sapiens) (UniProt Q14671)
T16 sequence: T2 sequence with V72N, F73Y, T108C, H109N, E112T, T144N, F145H, R148Q

[17] = target: T17, PUM1 PUF domain R3-CPG R936P + Q939G (Homo sapiens) (UniProt Q14671)
T17 sequence: T2 sequence with V72N, F73Y, T108C, H109P, E112G, T144N, F145H, R148Q

[18] = target: T18, PUM1 PUF domain R3-CRA Q939A (Homo sapiens) (UniProt Q14671)
T18 sequence: T2 sequence with V72N, F73Y, T108C, H109R, E112A, T144N, F145H, R148Q

[19] = target: T19, PUM1 PUF domain R3-CRH Q939H (Homo sapiens) (UniProt Q14671)
T19 sequence: T2 sequence with V72N, F73Y, T108C, H109R, E112H, T144N, F145H, R148Q

[20] = target: T20, PUM1 PUF domain R3-DFL C935D + R936F + Q939L (Homo sapiens) (UniProt Q14671)
T20 sequence: T2 sequence with V72N, F73Y, T108D, H109F, E112L, T144N, F145H, R148Q

[21] = target: T21, PUM1 PUF domain R3-DRE C935D + Q939E (UniProt Q14671)
T21 sequence: T2 sequence with V72N, F73Y, T108D, H109R, T144N, F145H, R148Q

[22] = target: T22, PUM1 PUF domain R3-DRL C935D + Q939L (UniProt Q14671)
T22 sequence: T2 sequence with V72N, F73Y, T108D, H109R, E112L, T144N, F145H, R148Q

[23] = target: T23, PUM1 PUF domain R3-DWE C935D + R936W + Q939E (UniProt Q14671)
T23 sequence: T2 sequence with V72N, F73Y, T108D, H109W, T144N, F145H, R148Q

[24] = target: T24, PUM1 PUF domain R3-ERS C935E + Q939S (UniProt Q14671)
T24 sequence: T2 sequence with V72N, F73Y, T108E, H109R, E112S, T144N, F145H, R148Q

[25] = target: T25, PUM1 PUF domain R3-ESL C935E + R936S + Q939L (UniProt Q14671)
T25 sequence: T2 sequence with V72N, F73Y, T108E, H109S, E112L, T144N, F145H, R148Q

[26] = target: T26, PUM1 PUF domain R3-FCA C935F + R936C + Q939A (Homo sapiens) (UniProt Q14671)
T26 sequence: T2 sequence with V72N, F73Y, T108F, H109C, E112A, T144N, F145H, R148Q

[27] = target: T27, PUM1 PUF domain R3-FCE C935F + R936C + Q939E (Homo sapiens) (UniProt Q14671)
T27 sequence: T2 sequence with V72N, F73Y, T108F, H109C, T144N, F145H, R148Q

[28] = target: T28, PUM1 PUF domain R3-FCG C935F + R936C + Q939G (Homo sapiens) (UniProt Q14671)
T28 sequence: T2 sequence with V72N, F73Y, T108F, H109C, E112G, T144N, F145H, R148Q

[29] = target: T29, PUM1 PUF domain R3-FCL C935F + R936C + Q939L (Homo sapiens) (UniProt Q14671)
T29 sequence: T2 sequence with V72N, F73Y, T108F, H109C, E112L, T144N, F145H, R148Q

[30] = target: T30, PUM1 PUF domain R3-FCS C935F + R936C + Q939S (Homo sapiens) (UniProt Q14671)
T30 sequence: T2 sequence with V72N, F73Y, T108F, H109C, E112S, T144N, F145H, R148Q

Sequence: GGCUAGAACUAGUGGAUCCCCCGGCGCCCGGCGGCUCGAGCCCGGGUAAGUGUAAUUAGUCUGCAUGCCGCCGGGCGCCAUGCCUGCAGGUCGACUCUAGAAAACAUG
- binding signal (log2 enrichment (interaction score)) [1]: -5.87
- binding signal (log2 enrichment (interaction score)) [2]: -6.14
- binding signal (log2 enrichment (interaction score)) [3]: < -8.86
- binding signal (log2 enrichment (interaction score)) [4]: -1.12
- binding signal (log2 enrichment (interaction score)) [5]: 0.73
- binding signal (log2 enrichment (interaction score)) [6]: -1.29
- binding signal (log2 enrichment (interaction score)) [7]: -0.72
- binding signal (log2 enrichment (interaction score)) [8]: -3.41
- binding signal (log2 enrichment (interaction score)) [9]: 0.05
- binding signal (log2 enrichment (interaction score)) [10]: 0.63
- binding signal (log2 enrichment (interaction score)) [11]: 0.07
- binding signal (log2 enrichment (interaction score)) [12]: < -6.71
- binding signal (log2 enrichment (interaction score)) [13]: < -7.89
- binding signal (log2 enrichment (interaction score)) [14]: -4.6
- binding signal (log2 enrichment (interaction score)) [15]: -4.31
- binding signal (log2 enrichment (interaction score)) [16]: -0.96
- binding signal (log2 enrichment (interaction score)) [17]: -1.28
- binding signal (log2 enrichment (interaction score)) [18]: 0.21
- binding signal (log2 enrichment (interaction score)) [19]: -0.16
- binding signal (log2 enrichment (interaction score)) [20]: -1.64
- binding signal (log2 enrichment (interaction score)) [21]: < -8.04
- binding signal (log2 enrichment (interaction score)) [22]: -2.17
- binding signal (log2 enrichment (interaction score)) [23]: -4.78
- binding signal (log2 enrichment (interaction score)) [24]: -3.68
- binding signal (log2 enrichment (interaction score)) [25]: -3.43
- binding signal (log2 enrichment (interaction score)) [26]: -0.65
- binding signal (log2 enrichment (interaction score)) [27]: -1.62
- binding signal (log2 enrichment (interaction score)) [28]: -1.05
- binding signal (log2 enrichment (interaction score)) [29]: -2.29
- binding signal (log2 enrichment (interaction score)) [30]: -0.36

From PMC8384837
